Results on one molecule are retold here after PMC6160412.

By UniProt entry, the sequences of proteins in these tests, tags left out. Where a name states a change or a piece, a line headed by the entry shows the natural chain unless it says otherwise.
UniProt P58400: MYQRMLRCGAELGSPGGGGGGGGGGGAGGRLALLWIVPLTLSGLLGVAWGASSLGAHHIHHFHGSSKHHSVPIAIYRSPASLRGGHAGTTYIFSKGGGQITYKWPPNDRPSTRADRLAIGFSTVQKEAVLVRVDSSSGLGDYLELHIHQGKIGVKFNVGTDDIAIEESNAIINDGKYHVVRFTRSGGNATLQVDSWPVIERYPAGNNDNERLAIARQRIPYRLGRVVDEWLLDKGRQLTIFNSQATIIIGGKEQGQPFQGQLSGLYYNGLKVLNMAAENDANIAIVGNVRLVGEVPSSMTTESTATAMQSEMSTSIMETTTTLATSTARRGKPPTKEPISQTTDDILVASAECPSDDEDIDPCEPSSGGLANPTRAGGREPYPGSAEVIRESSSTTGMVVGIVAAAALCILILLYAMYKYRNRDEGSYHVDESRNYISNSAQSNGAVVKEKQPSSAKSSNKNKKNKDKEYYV

These are yes or no findings as the source states them, for the method shown. Binding can be weak; no strength is given.

The target of this assay is GST-fused human Nrxn1β (–S4) LNS domain (human) (UniProt P58400). In words: pull-down; GST-Nrxn1β (–S4) (5 µM) on Glutathione Sepharose FF with NL1 (5 µM) and LRRTM2 at 1:1:1 or 1:1:5 molar ratio; 20 mM Hepes-NaOH pH 7.5, 150 mM NaCl, 2 mM CaCl2, 0.005% Tween-20; SDS-PAGE with Coomassie staining; both purified.

B1: human LRRTM2 LRR domain, wild type (domain or fragment, UniProt O43300 34-371)
chain: CPPKCRCEKLLFYCDSQGFHSVPNATDKGSLGLSLRHNHITELERDQFASFSQLTWLHLDHNQISTVKEDAFQGLYKLKELILSSNKIFYLPNTTFTQLINLQNLDLSFNQLSSLHPELFYGLRKLQTLHLRSNSLRTIPVRLFWDCRSLEFLDLSTNRLRSLARNGFAGLIKLRELHLEHNQLTKINFAHFLRLSSLHTLFLQWNKISNLTCGMEWTWGTLEKLDLTGNEIKAIDLTVFETMPNLKILLMDNNKLNSLDSKILNSLRSLTTVGLSGNLWECSARICALASWLGSFQGRWEHSILCHSPDHTQGEDILDAVHGFQLCWNLSTTVTVMA
Regarding B1, the binding entry is reported as “binds”.
